Screening data, single-dose tests

By UniProt entry, the sequences of proteins in these tests, tags left out. Residues count along the entry.
UniProt Q8IDJ8, 1-583: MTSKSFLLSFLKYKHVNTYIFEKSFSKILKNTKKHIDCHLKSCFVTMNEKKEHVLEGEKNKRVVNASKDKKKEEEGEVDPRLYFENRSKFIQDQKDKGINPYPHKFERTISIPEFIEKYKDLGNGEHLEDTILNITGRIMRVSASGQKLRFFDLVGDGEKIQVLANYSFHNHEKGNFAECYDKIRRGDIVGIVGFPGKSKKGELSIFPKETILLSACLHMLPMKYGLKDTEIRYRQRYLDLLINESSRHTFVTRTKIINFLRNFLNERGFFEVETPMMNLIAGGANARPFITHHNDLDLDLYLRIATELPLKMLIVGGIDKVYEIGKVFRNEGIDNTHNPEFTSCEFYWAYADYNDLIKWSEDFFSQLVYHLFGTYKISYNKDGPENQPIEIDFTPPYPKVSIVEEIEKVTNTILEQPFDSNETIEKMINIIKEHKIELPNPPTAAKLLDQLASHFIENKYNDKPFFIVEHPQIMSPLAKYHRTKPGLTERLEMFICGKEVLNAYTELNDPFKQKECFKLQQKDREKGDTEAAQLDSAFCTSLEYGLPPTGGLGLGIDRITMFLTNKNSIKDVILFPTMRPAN
UniProt A4I591, 1-473: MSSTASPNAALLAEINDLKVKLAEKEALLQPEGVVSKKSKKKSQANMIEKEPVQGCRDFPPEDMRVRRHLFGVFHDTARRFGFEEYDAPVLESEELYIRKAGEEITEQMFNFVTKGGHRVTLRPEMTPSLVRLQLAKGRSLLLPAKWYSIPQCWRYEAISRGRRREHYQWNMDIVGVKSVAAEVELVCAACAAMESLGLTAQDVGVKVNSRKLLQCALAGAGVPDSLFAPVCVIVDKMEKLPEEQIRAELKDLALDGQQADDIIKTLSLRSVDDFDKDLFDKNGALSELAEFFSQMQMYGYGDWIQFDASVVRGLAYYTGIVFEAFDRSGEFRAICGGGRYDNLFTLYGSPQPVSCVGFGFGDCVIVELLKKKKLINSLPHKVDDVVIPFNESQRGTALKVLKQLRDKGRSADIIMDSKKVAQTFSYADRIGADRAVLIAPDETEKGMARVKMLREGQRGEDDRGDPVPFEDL

The values are deposited in ChEMBL (CHEMBL3988442, “University of Dundee, Small-Polar-MMV Screening Library” (2021)).

A: 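Cell assay of Leishmania donovani living inside macrophages; the read-out is not stated. Tested at 30 µM. Direction is inferred from retests: higher values go with stronger inhibition. Of about 69,000 compounds tested this way, about 1,000 (1.5%) reached 50% or more in at least one test.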
B: 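Lysine-tRNA ligase, Plasmodium falciparum 3D7 (UniProt Q8IDJ8). Enzyme assay of the cytosolic lysyl-tRNA synthetase in 384-well plates, read by luminescence. Compounds at 30 µM. Direction is inferred from only a few compounds that gave an IC50; most scored high, so higher reads as stronger inhibition. About 69,000 compounds were tested under these conditions; 0.071% (about 49) showed 50% or more at least once.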
C: 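Histidine-tRNA ligase, Leishmania infantum (UniProt A4I591). Enzyme assay of histidyl-tRNA synthetase; the read-out is not stated. Concentration: 30 µM. Direction is inferred from retests: higher values go with stronger inhibition. The assay is labelled LdHisRS but filed under L. infantum. Of about 69,000 compounds tested this way, about 410 (0.6%) reached 50% or more in at least one test.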

The filed quantity is “Percent Effect” (%).
How 0% and 100% were set is not recorded. Most values in the screen are low, and negative values occur.
The compounds are a random part of those screened.
A dash means the value is not listed here; it may have been measured.

compound	A	B	C
Cc1cc(C)cc(C(=O)N2CCCN(CC(N)=O)CC2)c1	-24.86%	2.577%	20.48%
CN(Cc1n[nH]c(=O)n1Cc1cccs1)S(C)(=O)=O	-1.737%	5.598%	15.25%
CN(Cc1ccc(-n2ccnc2)cc1)CC1CCCN1c1cccnn1 (centres unmarked)	-4.485%	-2.75%	18.58%
Cc1nn(C)c(Cl)c1C1CCCN1C(=O)c1ccc(N(C)C)nn1 (centres unmarked)	-30.14%	-1.162%	0%
COc1cc(CN[C@@H]2COC[C@H]2Cc2cc(C)no2)cc(OC)c1.O=C(O)CC(O)(CC(=O)O)C(=O)O	4.158%	-	-
CCn1ncc2c1CCCC2NCc1ccc(C)s1 (centres unmarked)	16.27%	2.932%	13.22%
Cc1nn(C)c(C)c1C1CCCN1C(=O)CCNc1ncccn1 (centres unmarked)	-3.326%	8.57%	19.7%
CCn1ccc2ccc(CN3CCCC3c3nc(C(C)C)no3)cc21 (centres unmarked)	-27.59%	4.099%	10.83%
O=C(NCCCO)c1nc(-c2ccc3cc[nH]c3c2)no1	-10.12%	0.7759%	2.632%
Cc1cnn(C2CN(CCOc3ccc(C#N)cc3)C2)c1	18.45%	8.504%	17.7%
COc1ccc(C2=C(C)C(N3CCc4ccccc4C3)=NS2(=O)=O)cc1	3.237%	-1.641%	-20.39%
O=C(C1CCOC1)N1CCN(Cc2ccncc2)c2ncccc2C1 (centres unmarked)	11.02%	2.312%	6.944%
CCC(CNC(=O)Cn1ccnc1)Oc1cccc(F)c1 (centres unmarked)	-3.427%	1.626%	8.791%
CC1CCC(NS(=O)(=O)CC(=O)NC2(C(N)=O)CCCC2)CC1 (centres unmarked)	6.028%	2.219%	14.29%
CC(C)c1nn(C)c(N(C)C)c1CNCc1cscn1	-	3.242%	6.14%
O=C(Nc1cccnc1)[C@H]1COC[C@H]2CN(C3CCCC3)C[C@H]21	-	2.999%	17.31%
COc1ccccc1-n1nc(-c2ccco2)n(CC(=O)NC2CC2)c1=O	3.007%	0.9397%	-1.639%
Cc1ccc(-c2nc3cc(S(=O)(=O)N4CCCC4)ccc3n2C)o1	39.34%	12.13%	18.07%
O=C(c1cn(-c2ccccc2)nn1)N1CCOCC(O)C1 (centres unmarked)	16.82%	-3.191%	11.5%
Cc1ccc(CC(=O)N2CCN(CC(C)O)CC2)cn1 (centres unmarked)	29.41%	-0.961%	10.71%
CC(NC(=O)c1nc(=O)[nH][nH]1)c1ccc(OCC2CC2)c(F)c1 (centres unmarked)	34.19%	-1.312%	20%
CCn1ccc(NC(=O)CN2C(=O)C(C)(C)c3ccccc32)n1	39.57%	-1.762%	20.88%
CC(C)(C)C(O)CN1CCN(Cc2ccc(C#N)cc2)CC1 (centres unmarked)	9.011%	2.374%	8.219%
CN(C)C[C@H]1C[C@@H](CO)CN(C(=O)c2cc(=O)[nH]c3cc(F)ccc23)C1	30.17%	4.057%	13.7%
CCn1ncnc1CN1CCC(CNC(=O)c2cccc(C)c2)C1 (centres unmarked)	8.62%	2.896%	17.98%
CCN1CC[C@@]2(C(=O)N(C)C)CCN(C(=O)Cc3ccccc3)CC[C@@H]12	-	5.759%	7.767%
Cc1ccccc1CN1CCC2(CC1)CN(S(=O)(=O)c1ccccc1)C2	-	0.9407%	11.65%
O=C(O)c1ccccc1-c1c(-c2ccccc2)ncn1CC1CCCO1 (centres unmarked)	-1.472%	0.08347%	-8.602%
CCc1cc(N2CCC(NCc3ccc(C)o3)CC2)ncn1	57.16%	0.1442%	25.3%
CC(C)Cc1nc(C[S+]([O-])CC(=O)NCc2ccccc2)no1 (centres unmarked)	0.6573%	0.8275%	7.254%
C[C@@H]1CN2C[C@H](O)CC2CN1Cc1ccncc1 (some centres unmarked)	38.39%	1.802%	15.49%
Cc1noc(C)c1CS(=O)(=O)C(C)C(=O)N(C)c1ccccc1 (centres unmarked)	39.61%	4.206%	12.35%
Cc1ccc([C@@H]2CN(C(=O)c3csc(C)n3)C[C@H]2NC(=O)C2CC2)cc1	-6.975%	5.995%	20.95%
Cc1cnc(N2CCOC3(CCCN(C(=O)C(C)C)C3)C2)nc1 (centres unmarked)	6.709%	2.014%	2.564%
CCSCc1ccc(C(=O)N2CCCN(CC(N)=O)CC2)cc1	-5.358%	0.1877%	11.7%
COc1ccccc1CN1C[C@@H]2CN(C(C)=O)CCO[C@@H]2C1	-	2.937%	4.505%
Cn1cc(CN2CC[C@@H]3[C@@H](CCC(=O)N3CC3CCNCC3)C2)cn1	-	2.215%	8.065%
CCc1cnc(COc2ccc(OC3CCCCNC3=O)cc2)o1 (centres unmarked)	33.16%	5.078%	16.07%
CN(C)[C@@H]1COC[C@@H]2CN(Cc3ccc4c(c3)OCO4)C[C@@H]21	-	1.909%	16.24%
Cc1cc(C)n(C2CCN(S(=O)(=O)N3CCOCC3)CC2)n1	-18.5%	0.6658%	14.29%
CC(C)CNC(=O)CNC(=O)NC(c1nccs1)C1CC1 (centres unmarked)	-2.624%	6.313%	21.43%
Cc1nn(C)c(N(C)C)c1CNC1CCc2c(F)cccc21 (centres unmarked)	-	-1.079%	31.2%
O=C(O)C(F)(F)F.O=C(O)C(F)(F)F.c1cncc(COCc2nnc3n2CCN(Cc2ccco2)C3)c1	-14.15%	-	-
O=C(O)C(F)(F)F.O=C(O)C(F)(F)F.c1cc2nc(C3CCN(CC4CC4)CC3)nn2cc1N1CCCC1	25.57%	-	-

2 of the entries, repeated:

- O=C(c1cn(-c2ccccc2)nn1)N1CCOCC(O)C1 (centres unmarked) | A: 16.82%; B: -3.191%; C: 11.5%
- COc1ccccc1-n1nc(-c2ccco2)n(CC(=O)NC2CC2)c1=O | A: 3.007%; B: 0.9397%; C: -1.639%